Literature values, collected in paper PMC3784060 (Cancer Chemotherapy and Pharmacology, 2013).
Which two values form the index is not stated here.

Test system: A2780 ovarian carcinoma xenograft
Conditions: A2780 ovarian carcinoma xenograft mouse model; cited from earlier work

Compound	therapeutic index (TI; maximum tolerated dose to effective dose)
CC(C)(C)c1cnc(CSc2cnc(NC(=O)C3CCNCC3)s2)o1 [SNS-032]	2
CN1CC[C@H](c2c(O)cc(O)c3c(=O)cc(-c4ccccc4Cl)oc23)[C@H](O)C1 [flavopiridol]	< 1
